These results are taken from the supplement of paper PMC6411743.

Assay in all cases: NP40-soluble protein abundance relative to vehicle (solubility fold change) (ratio); higher = more soluble protein in presence of AMP-PNP
For assay [1], the target named is T1, B4DH95 and related entries (UniProt Q6P9H5).
T1 sequence (whole entry): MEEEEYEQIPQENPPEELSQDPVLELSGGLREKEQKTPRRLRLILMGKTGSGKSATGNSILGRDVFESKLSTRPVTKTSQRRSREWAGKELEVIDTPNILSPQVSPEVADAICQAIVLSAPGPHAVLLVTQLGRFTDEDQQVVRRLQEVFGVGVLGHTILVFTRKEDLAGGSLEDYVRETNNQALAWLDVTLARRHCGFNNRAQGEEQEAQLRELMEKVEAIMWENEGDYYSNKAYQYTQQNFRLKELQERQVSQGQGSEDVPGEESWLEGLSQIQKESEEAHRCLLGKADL
Put shortly: (§1)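 Each value is a fold change relative to the detergent-processed vehicle, calculated per replicate from vsn-normalised intensities. Jurkat crude lysate received eight concentrations (0.1 to 10 mM) for 10 min at room temperature and 3 min at 37 °C, then was solubilised in 0.8% NP40 with benzonase (60 min, 4 °C). The ultracentrifuged supernatant was TMT-labelled and run by LC-MS/MS in three independent experiments.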

Assay [2] concerns the target T2, B4DI03 and related entries (UniProt Q9BY50).
T2 sequence (whole entry): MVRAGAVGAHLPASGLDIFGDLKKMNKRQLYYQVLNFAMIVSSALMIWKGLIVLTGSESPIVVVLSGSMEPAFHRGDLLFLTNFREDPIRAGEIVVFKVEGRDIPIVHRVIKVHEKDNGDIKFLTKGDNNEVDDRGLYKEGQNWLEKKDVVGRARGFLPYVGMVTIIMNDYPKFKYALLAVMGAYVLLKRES
Put shortly: as §1

Assay [3] has as its target T3, B4DZG1 and related entries (UniProt Q9Y483).
T3 sequence (whole entry): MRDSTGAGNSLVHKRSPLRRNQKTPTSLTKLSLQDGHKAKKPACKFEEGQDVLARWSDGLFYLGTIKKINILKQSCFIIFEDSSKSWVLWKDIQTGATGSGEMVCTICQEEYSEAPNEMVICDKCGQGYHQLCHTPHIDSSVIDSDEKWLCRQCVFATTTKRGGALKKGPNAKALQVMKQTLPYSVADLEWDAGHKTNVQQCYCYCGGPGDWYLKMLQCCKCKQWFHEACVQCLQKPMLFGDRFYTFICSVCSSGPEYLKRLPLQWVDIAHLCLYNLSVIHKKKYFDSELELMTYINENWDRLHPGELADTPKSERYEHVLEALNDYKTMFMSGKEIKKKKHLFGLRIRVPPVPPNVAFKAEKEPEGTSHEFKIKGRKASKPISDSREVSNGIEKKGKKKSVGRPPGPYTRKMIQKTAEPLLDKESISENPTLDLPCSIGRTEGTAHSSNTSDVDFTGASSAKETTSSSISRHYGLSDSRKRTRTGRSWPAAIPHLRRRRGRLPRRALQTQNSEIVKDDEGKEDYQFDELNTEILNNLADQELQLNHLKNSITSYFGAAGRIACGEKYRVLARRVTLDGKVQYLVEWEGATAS
Put shortly: as §1

A further assay addresses T4, B5MCQ4 (UniProt Q9BY27).
T4 sequence (whole entry): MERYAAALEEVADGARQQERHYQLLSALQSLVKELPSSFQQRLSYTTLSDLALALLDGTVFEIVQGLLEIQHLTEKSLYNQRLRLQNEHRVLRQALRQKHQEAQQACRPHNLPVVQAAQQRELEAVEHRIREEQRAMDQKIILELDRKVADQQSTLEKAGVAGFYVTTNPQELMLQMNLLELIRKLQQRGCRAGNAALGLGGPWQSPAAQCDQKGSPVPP
Put shortly:
as §1

In assay [4] the target is T5, B7WPL9 and related entries (UniProt Q6PFW1).
T5 sequence (whole entry): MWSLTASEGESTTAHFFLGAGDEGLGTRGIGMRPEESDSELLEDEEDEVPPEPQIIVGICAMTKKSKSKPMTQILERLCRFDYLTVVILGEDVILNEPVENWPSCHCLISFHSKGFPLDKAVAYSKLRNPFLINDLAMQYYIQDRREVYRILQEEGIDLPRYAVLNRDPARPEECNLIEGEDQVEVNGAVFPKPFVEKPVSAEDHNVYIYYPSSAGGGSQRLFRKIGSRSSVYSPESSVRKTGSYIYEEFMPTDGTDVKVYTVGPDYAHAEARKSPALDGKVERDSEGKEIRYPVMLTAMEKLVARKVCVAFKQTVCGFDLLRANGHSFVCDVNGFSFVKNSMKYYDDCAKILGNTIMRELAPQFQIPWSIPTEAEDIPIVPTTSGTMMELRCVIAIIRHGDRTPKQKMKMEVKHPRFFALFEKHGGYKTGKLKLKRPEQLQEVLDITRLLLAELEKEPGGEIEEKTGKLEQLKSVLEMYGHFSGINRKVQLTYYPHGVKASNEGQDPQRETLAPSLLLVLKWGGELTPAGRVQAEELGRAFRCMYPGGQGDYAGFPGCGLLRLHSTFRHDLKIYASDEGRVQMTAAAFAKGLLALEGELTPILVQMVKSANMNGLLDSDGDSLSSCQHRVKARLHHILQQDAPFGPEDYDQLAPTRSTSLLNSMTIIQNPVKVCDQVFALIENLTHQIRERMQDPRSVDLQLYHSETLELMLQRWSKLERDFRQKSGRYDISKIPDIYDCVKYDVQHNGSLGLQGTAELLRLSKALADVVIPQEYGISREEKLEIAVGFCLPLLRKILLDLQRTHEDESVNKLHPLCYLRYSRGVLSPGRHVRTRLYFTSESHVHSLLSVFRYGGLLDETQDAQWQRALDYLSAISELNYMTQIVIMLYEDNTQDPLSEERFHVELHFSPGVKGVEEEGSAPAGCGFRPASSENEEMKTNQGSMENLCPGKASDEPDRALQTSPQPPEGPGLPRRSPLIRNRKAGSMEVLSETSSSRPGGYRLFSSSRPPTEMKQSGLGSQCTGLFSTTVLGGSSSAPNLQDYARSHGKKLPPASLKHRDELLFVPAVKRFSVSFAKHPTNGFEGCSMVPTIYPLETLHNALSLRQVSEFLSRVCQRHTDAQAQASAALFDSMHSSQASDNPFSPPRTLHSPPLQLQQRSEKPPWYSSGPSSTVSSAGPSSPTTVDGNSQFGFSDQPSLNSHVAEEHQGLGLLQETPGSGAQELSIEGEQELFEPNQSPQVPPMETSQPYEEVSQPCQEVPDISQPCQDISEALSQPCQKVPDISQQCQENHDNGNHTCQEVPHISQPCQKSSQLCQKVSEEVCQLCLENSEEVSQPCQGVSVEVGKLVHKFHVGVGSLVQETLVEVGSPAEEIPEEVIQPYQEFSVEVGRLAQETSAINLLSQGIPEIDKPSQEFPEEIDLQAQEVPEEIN
An outline of the steps:
as §1

± gives the standard deviation of the averaged measurements. Only a part is listed here, and it is no random draw.

Turning to `Nc1ncnc2c1ncn2[C@@H]1O[C@H](COP(=O)(O)OP(=O)(O)NP(=O)(O)O)[C@@H](O)[C@H]1O` [adenylyl imidodiphosphate], the NP40-soluble protein abundance was 1.03 ± 0.052 in assay [1] (concentration: 8mM); 0.994 ± 0.035 in assay [1] (concentration: 10mM); 0.973 ± 0.031 in assay [2] (concentration: 1mM); 1.02 ± 0.051 in assay [2] (concentration: 2mM); 0.965 ± 0.042 in assay [2] (concentration: 4mM); 0.952 ± 0.02 in assay [2] (concentration: 6mM). Also, the NP40-soluble protein abundance in assay [2] (concentration: 8mM) worked out at 0.946 ± 0.031; in assay [2] (concentration: 10mM), 0.949 ± 0.046; in assay [3] (concentration: 1mM), 0.992 ± 0.027; in assay [3] (concentration: 2mM), 1.11 ± 0.14; in assay [3] (concentration: 4mM) it was 1.08 ± 0.046; in assay [3] (concentration: 6mM), 1.13 ± 0.049. Besides, the NP40-soluble protein abundance stood at 1.14 ± 0.096 in assay [3] (concentration: 8mM); 1.28 ± 0.15 in assay [3] (concentration: 10mM); 0.977 ± 0.025 with B5MCQ4 (concentration: 1mM); 0.9829 ± 0.0095 with B5MCQ4 (concentration: 2mM); 0.967 ± 0.037 with B5MCQ4 (concentration: 4mM); 0.972 ± 0.03 in the assay with B5MCQ4 (concentration: 6mM). For the same molecule, the NP40-soluble protein abundance amounted to 0.988 ± 0.053 in the assay with B5MCQ4 (concentration: 8mM); 0.974 ± 0.057 with B5MCQ4 (concentration: 10mM); 0.997 ± 0.016 in assay [4] (concentration: 1mM); 1.04 ± 0.013 in assay [4] (concentration: 2mM); 1.02 ± 0.028 in assay [4] (concentration: 4mM).
